# Data taken from PubChem BioAssay AID504467 (National Center for Advancing Translational Sciences (NCATS), 2011).
# About 7,700 (2.3%) of roughly 330,000 compounds were called active. This list was built around the results that the source calls inconclusive (neither active nor inactive); the mix of calls is not that of the screen. Calls follow the shape of the dose curve; as a rule, active = well fitted inhibition curve with a large enough effect; inconclusive = small, poorly fitted or top-dose-only effect, or effect the other way; inactive = flat fitted curve, though single readings scatter. Potencies beside an inconclusive call are fits to weak or partial responses and may not hold up.
# Assay: qHTS screen for small molecules that inhibit ELG1-dependent DNA repair in human embryonic kidney (HEK293T) cells expressing luciferase-tagged ELG1; also: nearly all actives have a fitted effect of over 55% in size
# Conditions: HEK293T ELG1-luciferase reporter, luminescence, 16 h, DNA damage induced by 5-fluorouridine; activity change, negative = inhibition: at 46.1 µM (top of the series)
# In short: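 In this reporter screen, reduction of luminescence relative to DMSO vehicle indicated activity. Compounds and 5-fluorouridine were added together to 2,000 cells per well, incubated for 16 hr at 37 °C, then developed with ONE-Glo.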
# % is scaled to controls: 0 for no effect and ±100 for the full control effect; potency is read from the fitted curve at half-maximal effect.
Structure (SMILES),Potency,"activity change, negative = inhibition"
COc1ccc(C2NC(=O)c3ccccc3N2)cc1 (centres undefined),"inconclusive: 6.51 µM [activator, full curve]",–
COc1cc(C)ccc1OCCOCCOc1c(C)cc(C)cc1Br,"inconclusive: 23.1 µM [activator, single point]",–
O=C(Nc1ccc(N2CCOCC2)cc1N1CCOCC1)c1ccc(F)cc1,–,inactive: -8.52%
COc1ccc(CCNC(=S)NCCc2ccc(OC)c(OC)c2)cc1OC,"inconclusive: 29.1 µM [inhibitor, single point]",–
O=C(Nc1ccc(OCC(=O)N2CCOCC2)cc1)c1ccccc1F,"inconclusive: 9.2 µM [activator, partial curve]",–
CCCCn1cnc2c1c(=O)[nH]c(=O)n2CCCC,"inconclusive: 18.4 µM [activator, single point]",–
CCC(=O)NNc1ccc(Br)cc1,"inconclusive: 20.6 µM [inhibitor, single point]",–
[2H]C(CCOS(N)(=O)=O)c1ccc(C(C)(C)C)cc1 (centres undefined),"inconclusive: 8.2 µM [activator, single point]",–
CSc1ncc(C(=O)Nc2cccc(S(N)(=O)=O)c2)n1-c1ccccc1,–,inactive: 12.6%
CCOC(=O)c1c(NC(=O)Nc2ccccc2)sc(C)c1C,"inconclusive: 0.259 µM [inhibitor, partial curve, poor fit]",–
O=C(NCCc1ccccc1)c1cc(-c2ccc3c(c2)OCO3)on1,"inconclusive: 14.6 µM [activator, partial curve]",–
O=C(Nc1ccc(CN2CCS(=O)(=O)CC2)cc1)c1ccc(F)cc1,"inconclusive: 16.4 µM [inhibitor, single point]",–
O=c1c2cc(Br)ccc2nc(-c2ccc([N+](=O)[O-])cc2)n1O,"inconclusive: 11.6 µM [inhibitor, partial curve]",–
COC(=O)c1cc(S(=O)(=O)NCc2cc(OC)c(OC)c(OC)c2)cn1C,–,inactive: 5.34%
CCN1C(=NCC(C)C)N[C@@H](c2cccc(F)c2)C(C(=O)OC)=C1C,–,inactive: -12%
CC(C)=CCC/C(C)=C/CNC(=O)CC1C[C@H](C(=O)N2CCCCC2)[C@@]2(C)c3[nH]c4ccccc4c3CCN2C1=O (some centres undefined),–,inactive: 5.55%
Cc1ccc(C(=O)C2CCNCC2)cc1,"inconclusive: 7.31 µM [activator, partial curve, poor fit]",–
CCc1nnc(NC(=O)Nc2ccc(Cl)cc2)s1,"inconclusive: 1.3 µM [activator, full curve, poor fit]",–
COc1ccc(C(=O)Nn2c(SCc3cccc([N+](=O)[O-])c3)nc3ccccc3c2=O)cc1,"inconclusive: 0.259 µM [activator, full curve]",–

# Some of these compounds in order of SMILES length, descending:
Structure (SMILES),Potency,"activity change, negative = inhibition"
CCN1C(=NCC(C)C)N[C@@H](c2cccc(F)c2)C(C(=O)OC)=C1C,–,inactive: -12%
COc1cc(C)ccc1OCCOCCOc1c(C)cc(C)cc1Br,"inconclusive: 23.1 µM [activator, single point]",–
CCC(=O)NNc1ccc(Br)cc1,"inconclusive: 20.6 µM [inhibitor, single point]",–
